# Results of single-concentration screens

From ChEMBL document CHEMBL3988442, “University of Dundee, Small-Polar-MMV Screening Library” (2021).

Each number is a percent effect as filed. How 0% and 100% were set is not recorded. Most values in the screen are low, and negative values occur. Compounds were drawn at random from those tested, without regard to their results. Two or more numbers in one place are separate tests of the same structure; such repeats can differ widely.

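Growth of Mycobacterium tuberculosis over 4 days (cholesterol / DPPC medium with tyloxapol); the read-out is not stated. Compounds at 50 µM. Higher reads as more growth inhibition (inferred: compounds with an IC50 in retests scored well above the rest). Of about 69,000 compounds tested this way, about 370 (0.54%) reached 50% or more in at least one test.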

* COc1ncc(C)cc1NC(=O)COc1ccccc1F | -6.366%
* CN(C)C(=O)CN1CCC2(CCN(S(=O)(=O)C3CC3)CC2)C1=O | 4.831%
* CSc1cccc(CN2CCC(CCC(=O)NC3CC3)CC2)c1 | -5.478% & -3.818%
* Cl.Cl.Fc1cccc(-c2c[nH]c(C3CCCN3)n2)c1 (stereo not shown) | 20.03%
* CC(C)COCC1CN(Cc2ccoc2)Cc2ncn(C)c21 (stereo not shown) | -50.57%
* O=C(CCc1ccccc1)N1CCn2cc(CN3CCCC3)nc2C1 | 9.335%
* Cn1cc(CN2CCC3(CC2)NC(=O)CC3c2ccncc2)cn1.O=C(O)C(F)(F)F.O=C(O)C(F)(F)F (stereo not shown) | 10.78%
* CCOC(=O)N1CCN(c2nc(C)ncc2CC)CC1 | -26.43%
* CCN1CCNC(=O)C12CCN(C(=O)Cc1ccsc1)CC2 | -26.7%
* Cn1nnc(NCc2ccc(-c3ccc(Cl)cc3)o2)n1 | 35.98%
* CCC(CO)N(Cc1cccnc1)C(=O)c1ccc(C)[nH]c1=O (stereo not shown) | 16.47%
* COC1CCCN(c2nc(C)nc3c2CCN(Cc2ccco2)CC3)C1 (stereo not shown) | -7.134%
* O=C(Cc1ccsc1)N1CCC(n2nc(-c3ccco3)ccc2=O)CC1 | -12.73%
* N[C@H]1CN(C(=O)CCc2ccccn2)C[C@@H]1c1ccccc1 | -20.5%
* CCOCC1CN(S(C)(=O)=O)Cc2nn(C)cc21 (stereo not shown) | -9.236%
* CCNC(=O)[C@@H]1C[C@H](N)CN1Cc1ccc(Sc2ccc(C)cc2)o1 | -5.123%
* [H][C@]12CC[C@]([H])(CN(C(=O)COc3ccc(F)c(Cl)c3)C1)N(CCOC)C2=O | -15.11%
* CN(Cc1ncnn1C)C(=O)CCn1ccc2ccccc21 | 25.69%
* CC(C)c1noc(C(C)N2CCC(c3nc4ccccc4o3)CC2)n1 (stereo not shown) | 20.1%
* O=C(CC1CCCO1)NCCc1ccc(Br)cc1F (stereo not shown) | 13.37%
* Cc1cc(C)n(C2CN(CC(O)c3ccc(C(F)(F)F)cc3)C2)n1 (stereo not shown) | -4.954%
* Cc1cc(O)ncc1NS(=O)(=O)c1cccc(F)c1F | 6.346%
* CCN1CCOCC12CCN(C(=O)c1ccsc1)CC2.O=C(O)C(F)(F)F | -1.05%
* CN1CCC(CN2CCC3(CCCN(Cc4ccoc4)C3)C2=O)CC1.O=C(O)C(F)(F)F.O=C(O)C(F)(F)F (stereo not shown) | -4.517% & 2.251%
* CC(C)(C)c1nnc(CN2CCC(c3cc4ccccc4[nH]3)CC2)o1 | -31.78%
* Cc1cc(CN(C)Cc2ncc(-c3cccs3)o2)no1 | 28.34%
* OCC1(O)CCCN(Cc2noc(-c3ccccc3)n2)C1 (stereo not shown) | -17.53%
* COc1ccc(N2Cc3nc(=O)n(C(C)C)n3C2=O)cc1 | 11.68%
* CCn1ncc2c1C(COC)CN(Cc1ccco1)C2 (stereo not shown) | -5.52%
* CCSCCC(C)N(C)C(=O)c1ccc(C)o1 (stereo not shown) | 11.5%
* O=C(O)C(F)(F)F.O=C(O)C(F)(F)F.[H][C@@]12COC[C@H](C(=O)Nc3cccnc3)[C@]1([H])CN(Cc1cnn(C)c1)C2 | -2.601%
* CCc1nc(CNC(C)c2cccc(N3CCCC3=O)c2)cs1.Cl (stereo not shown) | -21.03%
* FC(F)(F)CCc1ccnc(N2CCN(CCc3ccncc3)CC2)n1 | 4.351%
* COc1ccc(C2CCCN2C(=O)NCCNc2ccccn2)cc1 (stereo not shown) | 28.75%
* CN(C)c1ncc(-c2cncnc2)c(C2CNCCO2)n1.Cl (stereo not shown) | 8.322% & 19.81%
* [H][C@@]12CCN(C(=O)c3ccccc3)C[C@@]1([H])O[C@@H](c1nccs1)C2 | 6.89%
* Cc1cc(C(=O)NCCN2CCCC(C)C2)nn1C (stereo not shown) | -1.379%
* CCc1ccc(CN(CC)Cc2ccc(S(=O)(=O)NC)cc2)cc1 | 5.333%
* COCCNS(=O)(=O)c1cccc2c1CN(C(=O)c1ccoc1)CC2 | -10.94%
* COCC1CCN(c2nc(C(C)(C)C)nc3c2cnn3C)C1 (stereo not shown) | 21.06%
* Cc1cc(C(=O)Cn2cnnc2[S+](C)[O-])cc(C)c1F (stereo not shown) | -17.24%
* COc1ccc(CN2CCC3(CC(=O)N(c4cncnc4)C3)C2)cc1.O=C(O)C(F)(F)F (stereo not shown) | -16.15%
* Cc1csc(C2CCCCN2C(=O)c2cc(Cl)c[nH]2)n1 (stereo not shown) | -20.81%
* Cc1cc(C(F)(F)F)nn1CCCNC(=O)C1CCCO1 (stereo not shown) | -14.36%

Repeated from the top, 4 entries:

Compound,percent effect
COc1ncc(C)cc1NC(=O)COc1ccccc1F,-6.366%
CN(C)C(=O)CN1CCC2(CCN(S(=O)(=O)C3CC3)CC2)C1=O,4.831%
CSc1cccc(CN2CCC(CCC(=O)NC3CC3)CC2)c1,-5.478% & -3.818%
Cl.Cl.Fc1cccc(-c2c[nH]c(C3CCCN3)n2)c1 (stereo not shown),20.03%